Source: the supplement of paper PMC12067093, “Discovery and optimisation of a covalent ligand for TRIM25 and its application to targeted protein ubiquitination” (Chemical Science, 2025)
This is one part of the list.

By UniProt entry, the sequences of proteins in these tests, tags left out. Where a name states a change or a piece, a line headed by the entry shows the natural chain unless it says otherwise.
UniProt Q9Y5B8, whole entry, looked up: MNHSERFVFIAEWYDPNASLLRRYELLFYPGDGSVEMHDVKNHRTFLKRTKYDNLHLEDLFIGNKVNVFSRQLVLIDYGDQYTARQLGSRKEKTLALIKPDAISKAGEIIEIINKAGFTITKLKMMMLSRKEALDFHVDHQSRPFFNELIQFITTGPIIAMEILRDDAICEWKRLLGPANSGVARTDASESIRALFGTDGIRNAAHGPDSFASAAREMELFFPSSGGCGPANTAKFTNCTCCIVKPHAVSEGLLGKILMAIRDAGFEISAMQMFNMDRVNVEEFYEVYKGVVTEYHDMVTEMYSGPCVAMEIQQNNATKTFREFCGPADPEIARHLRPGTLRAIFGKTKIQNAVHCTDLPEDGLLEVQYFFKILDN
UniProt Q9UK39: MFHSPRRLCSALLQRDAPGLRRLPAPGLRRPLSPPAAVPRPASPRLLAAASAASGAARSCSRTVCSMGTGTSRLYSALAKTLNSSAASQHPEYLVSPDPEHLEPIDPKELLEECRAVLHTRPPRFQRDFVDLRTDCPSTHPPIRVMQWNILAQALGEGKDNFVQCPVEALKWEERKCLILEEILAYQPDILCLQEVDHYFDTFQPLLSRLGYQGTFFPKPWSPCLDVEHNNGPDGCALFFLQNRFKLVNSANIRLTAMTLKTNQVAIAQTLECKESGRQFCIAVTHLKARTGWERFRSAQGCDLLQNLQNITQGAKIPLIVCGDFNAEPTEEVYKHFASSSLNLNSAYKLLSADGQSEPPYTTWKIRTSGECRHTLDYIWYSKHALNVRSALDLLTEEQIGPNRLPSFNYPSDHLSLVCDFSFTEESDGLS
UniProt Q15233: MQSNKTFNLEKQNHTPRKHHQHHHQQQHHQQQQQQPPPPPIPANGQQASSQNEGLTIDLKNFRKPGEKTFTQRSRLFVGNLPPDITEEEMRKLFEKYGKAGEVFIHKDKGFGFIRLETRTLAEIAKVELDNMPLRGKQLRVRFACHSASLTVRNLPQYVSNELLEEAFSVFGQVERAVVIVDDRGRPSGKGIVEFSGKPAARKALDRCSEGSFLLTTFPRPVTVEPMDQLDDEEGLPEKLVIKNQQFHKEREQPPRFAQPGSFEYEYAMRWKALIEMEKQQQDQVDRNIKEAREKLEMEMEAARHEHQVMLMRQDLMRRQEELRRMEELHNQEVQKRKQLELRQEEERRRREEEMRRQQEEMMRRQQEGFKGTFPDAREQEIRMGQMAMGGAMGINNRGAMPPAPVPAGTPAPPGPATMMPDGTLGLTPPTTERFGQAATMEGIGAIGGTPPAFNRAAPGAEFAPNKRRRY
UniProt Q15738: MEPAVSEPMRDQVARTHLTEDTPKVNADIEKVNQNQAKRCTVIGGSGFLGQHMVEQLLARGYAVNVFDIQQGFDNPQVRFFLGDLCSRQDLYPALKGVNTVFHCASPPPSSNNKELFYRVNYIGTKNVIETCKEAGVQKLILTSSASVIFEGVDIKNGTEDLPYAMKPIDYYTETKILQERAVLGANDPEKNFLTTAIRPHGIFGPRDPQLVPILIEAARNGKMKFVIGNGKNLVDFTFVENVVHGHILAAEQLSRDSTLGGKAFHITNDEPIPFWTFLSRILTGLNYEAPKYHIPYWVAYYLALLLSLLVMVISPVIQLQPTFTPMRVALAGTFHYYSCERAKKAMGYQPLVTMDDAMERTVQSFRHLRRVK
UniProt Q14207: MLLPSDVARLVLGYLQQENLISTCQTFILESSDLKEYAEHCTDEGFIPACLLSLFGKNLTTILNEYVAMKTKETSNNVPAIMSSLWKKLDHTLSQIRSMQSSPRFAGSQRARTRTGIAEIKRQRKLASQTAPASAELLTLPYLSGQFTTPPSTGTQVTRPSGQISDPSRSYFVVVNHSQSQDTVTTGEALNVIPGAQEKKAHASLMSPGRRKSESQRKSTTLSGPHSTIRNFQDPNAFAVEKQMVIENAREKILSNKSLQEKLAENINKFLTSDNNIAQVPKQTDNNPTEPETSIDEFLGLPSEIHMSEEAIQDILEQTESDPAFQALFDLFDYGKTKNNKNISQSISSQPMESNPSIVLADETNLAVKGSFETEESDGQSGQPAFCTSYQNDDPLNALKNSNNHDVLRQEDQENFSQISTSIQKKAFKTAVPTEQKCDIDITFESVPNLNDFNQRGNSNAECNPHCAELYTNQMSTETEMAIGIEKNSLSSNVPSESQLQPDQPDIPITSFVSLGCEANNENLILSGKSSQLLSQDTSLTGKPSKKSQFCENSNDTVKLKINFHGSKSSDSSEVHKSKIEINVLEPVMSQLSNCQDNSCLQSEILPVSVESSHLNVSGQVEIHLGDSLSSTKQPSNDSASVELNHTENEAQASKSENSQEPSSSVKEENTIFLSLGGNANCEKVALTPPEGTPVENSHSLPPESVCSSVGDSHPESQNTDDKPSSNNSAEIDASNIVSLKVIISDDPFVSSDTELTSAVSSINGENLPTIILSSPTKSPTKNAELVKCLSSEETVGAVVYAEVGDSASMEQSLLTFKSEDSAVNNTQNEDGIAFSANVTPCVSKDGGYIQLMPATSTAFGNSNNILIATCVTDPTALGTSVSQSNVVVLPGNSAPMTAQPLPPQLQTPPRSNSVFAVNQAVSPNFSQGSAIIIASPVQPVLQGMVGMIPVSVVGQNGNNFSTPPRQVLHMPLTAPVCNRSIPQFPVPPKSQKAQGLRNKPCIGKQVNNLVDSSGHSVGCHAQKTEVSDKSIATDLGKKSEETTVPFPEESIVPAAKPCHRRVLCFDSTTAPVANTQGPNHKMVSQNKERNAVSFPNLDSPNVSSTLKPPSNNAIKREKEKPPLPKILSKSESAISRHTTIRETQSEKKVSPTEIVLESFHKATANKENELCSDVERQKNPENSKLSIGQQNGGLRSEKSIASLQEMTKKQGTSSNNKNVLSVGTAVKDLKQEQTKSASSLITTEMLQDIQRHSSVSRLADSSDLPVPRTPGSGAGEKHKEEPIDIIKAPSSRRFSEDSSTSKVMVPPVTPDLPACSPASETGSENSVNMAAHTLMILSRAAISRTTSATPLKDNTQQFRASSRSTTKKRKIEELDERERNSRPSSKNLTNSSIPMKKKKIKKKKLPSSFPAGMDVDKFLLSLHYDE
UniProt Q9Y2X3: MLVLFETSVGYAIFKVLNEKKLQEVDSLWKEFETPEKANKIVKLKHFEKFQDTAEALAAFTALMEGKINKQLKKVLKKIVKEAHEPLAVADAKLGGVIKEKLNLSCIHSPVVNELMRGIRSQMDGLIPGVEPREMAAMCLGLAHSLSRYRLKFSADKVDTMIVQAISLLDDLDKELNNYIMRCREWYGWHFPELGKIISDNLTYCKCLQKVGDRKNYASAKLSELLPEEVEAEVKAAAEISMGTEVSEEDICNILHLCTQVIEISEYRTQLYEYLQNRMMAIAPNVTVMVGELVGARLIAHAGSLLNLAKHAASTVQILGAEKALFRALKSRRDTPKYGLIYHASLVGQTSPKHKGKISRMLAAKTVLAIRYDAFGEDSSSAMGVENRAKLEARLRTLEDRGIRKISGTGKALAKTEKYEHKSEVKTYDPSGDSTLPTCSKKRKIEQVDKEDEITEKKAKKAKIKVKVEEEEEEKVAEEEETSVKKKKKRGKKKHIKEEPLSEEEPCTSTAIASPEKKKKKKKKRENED
UniProt Q5SY16: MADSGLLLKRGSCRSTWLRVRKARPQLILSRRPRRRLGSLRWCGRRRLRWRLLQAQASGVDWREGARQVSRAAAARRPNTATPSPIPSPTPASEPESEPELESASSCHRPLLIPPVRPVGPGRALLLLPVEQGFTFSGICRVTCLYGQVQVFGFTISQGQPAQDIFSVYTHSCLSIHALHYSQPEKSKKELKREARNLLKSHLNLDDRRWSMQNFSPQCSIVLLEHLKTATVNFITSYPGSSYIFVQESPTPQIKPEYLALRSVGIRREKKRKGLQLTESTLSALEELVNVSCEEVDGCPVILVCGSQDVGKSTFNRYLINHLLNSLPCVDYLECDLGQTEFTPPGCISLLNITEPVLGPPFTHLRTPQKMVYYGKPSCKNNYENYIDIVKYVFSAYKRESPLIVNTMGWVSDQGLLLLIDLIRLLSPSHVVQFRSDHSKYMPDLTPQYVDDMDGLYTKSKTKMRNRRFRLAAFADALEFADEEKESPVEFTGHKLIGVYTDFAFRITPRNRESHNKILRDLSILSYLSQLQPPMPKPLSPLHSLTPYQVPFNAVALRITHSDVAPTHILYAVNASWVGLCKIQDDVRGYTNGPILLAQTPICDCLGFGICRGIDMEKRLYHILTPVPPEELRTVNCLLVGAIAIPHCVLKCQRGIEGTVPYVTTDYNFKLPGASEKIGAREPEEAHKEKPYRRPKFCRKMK
UniProt Q5TFE4: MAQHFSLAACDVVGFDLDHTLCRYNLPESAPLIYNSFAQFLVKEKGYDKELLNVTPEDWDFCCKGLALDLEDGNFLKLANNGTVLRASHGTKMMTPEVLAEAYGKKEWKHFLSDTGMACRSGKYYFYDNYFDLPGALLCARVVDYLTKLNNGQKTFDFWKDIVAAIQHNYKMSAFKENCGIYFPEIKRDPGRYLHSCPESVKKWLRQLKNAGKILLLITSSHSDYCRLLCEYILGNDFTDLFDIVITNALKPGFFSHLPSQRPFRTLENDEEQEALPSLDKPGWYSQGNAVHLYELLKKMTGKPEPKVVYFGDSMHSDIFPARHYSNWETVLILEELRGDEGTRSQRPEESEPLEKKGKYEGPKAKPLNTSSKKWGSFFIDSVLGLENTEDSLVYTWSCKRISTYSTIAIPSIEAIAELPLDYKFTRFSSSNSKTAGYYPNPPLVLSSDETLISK
UniProt Q9BYT8, whole entry, looked up: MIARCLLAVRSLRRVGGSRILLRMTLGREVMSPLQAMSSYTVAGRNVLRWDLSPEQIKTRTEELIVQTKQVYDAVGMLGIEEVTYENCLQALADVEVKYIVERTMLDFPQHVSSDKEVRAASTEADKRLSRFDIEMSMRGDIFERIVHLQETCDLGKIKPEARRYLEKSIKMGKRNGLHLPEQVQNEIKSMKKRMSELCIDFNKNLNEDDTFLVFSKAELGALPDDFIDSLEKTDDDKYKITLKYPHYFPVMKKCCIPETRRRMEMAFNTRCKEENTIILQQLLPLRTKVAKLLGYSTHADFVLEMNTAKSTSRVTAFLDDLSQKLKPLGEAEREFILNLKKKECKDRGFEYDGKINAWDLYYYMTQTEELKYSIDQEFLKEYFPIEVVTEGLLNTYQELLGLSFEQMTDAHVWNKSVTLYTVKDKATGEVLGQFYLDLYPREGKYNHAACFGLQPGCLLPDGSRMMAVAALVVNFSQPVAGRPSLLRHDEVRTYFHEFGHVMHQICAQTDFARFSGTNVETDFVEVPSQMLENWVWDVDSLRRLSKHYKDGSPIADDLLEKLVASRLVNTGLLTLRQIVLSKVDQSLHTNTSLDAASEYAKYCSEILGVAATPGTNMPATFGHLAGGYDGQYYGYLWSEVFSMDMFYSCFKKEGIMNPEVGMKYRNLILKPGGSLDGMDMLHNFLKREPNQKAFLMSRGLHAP
UniProt O00567: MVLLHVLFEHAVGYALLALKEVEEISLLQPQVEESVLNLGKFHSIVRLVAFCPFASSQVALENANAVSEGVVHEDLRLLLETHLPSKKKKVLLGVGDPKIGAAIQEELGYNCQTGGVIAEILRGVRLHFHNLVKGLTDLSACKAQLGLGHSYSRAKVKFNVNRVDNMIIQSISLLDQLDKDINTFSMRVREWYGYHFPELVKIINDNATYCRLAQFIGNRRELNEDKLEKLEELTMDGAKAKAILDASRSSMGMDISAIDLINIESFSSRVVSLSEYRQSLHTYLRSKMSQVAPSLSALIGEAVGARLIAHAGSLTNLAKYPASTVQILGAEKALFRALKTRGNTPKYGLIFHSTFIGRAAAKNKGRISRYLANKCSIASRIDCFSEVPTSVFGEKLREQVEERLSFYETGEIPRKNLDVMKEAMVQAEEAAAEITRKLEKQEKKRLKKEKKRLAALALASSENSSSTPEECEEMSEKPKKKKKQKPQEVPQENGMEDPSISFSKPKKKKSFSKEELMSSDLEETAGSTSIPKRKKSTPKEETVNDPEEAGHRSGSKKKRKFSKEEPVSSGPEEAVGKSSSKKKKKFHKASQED
UniProt P30419: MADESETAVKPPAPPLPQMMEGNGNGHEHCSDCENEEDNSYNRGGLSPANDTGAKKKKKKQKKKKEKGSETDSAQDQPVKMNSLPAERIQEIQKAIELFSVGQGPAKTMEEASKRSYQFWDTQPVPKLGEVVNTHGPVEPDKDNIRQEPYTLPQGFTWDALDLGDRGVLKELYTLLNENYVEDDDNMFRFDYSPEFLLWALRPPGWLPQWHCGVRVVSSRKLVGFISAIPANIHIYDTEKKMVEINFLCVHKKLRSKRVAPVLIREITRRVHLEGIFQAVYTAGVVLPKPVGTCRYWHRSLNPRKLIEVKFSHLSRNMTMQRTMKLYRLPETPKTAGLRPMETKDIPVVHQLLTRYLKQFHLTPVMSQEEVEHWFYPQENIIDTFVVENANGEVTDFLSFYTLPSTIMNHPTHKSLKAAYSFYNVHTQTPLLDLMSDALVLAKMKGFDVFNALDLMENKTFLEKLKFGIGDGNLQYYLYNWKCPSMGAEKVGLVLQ

These targets were tested with Cc1cc(ccc1-c1ccccc1)C(=O)N1CCCN(CC1)C(=O)CCl [compound 10] (assay: probe-labelled cysteine peptide fold change vs DMSO (competition) (log2 fold change); higher = less target engagement (more negative = stronger competition)). Conditions: 10 µM; THP-1; incubation time: 4 h.
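Further: competitive profiling in live THP-1 cells: cysteine peptides tagged with an iodoacetamide desthiobiotin (IA-DTB) probe, intensity after compound treatment relative to DMSO-treated cells.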

Row | Target | probe-labelled cysteine peptide fold change
1 | NPHP4_O75161_56_QGVLEVLSEVECHLR (UniProt O75161) | 0.0297
2 | NSD1_Q96L73_1689_ILASNSIICPNHFTPR (UniProt Q96L73) | -0.104
3 | NOL10_Q9BSC4_147_DFSYHYPSCDLYFVGASSEVYR (UniProt Q9BSC4) | -0.372
4 | NME7_Q9Y5B8_356_IQNAVHCTDLPEDGLLEVQYFFK (UniProt Q9Y5B8) | -0.153
5 | NR2C1_P13056_185_QDSVQCER (UniProt P13056) | -0.00946
6 | NOL6_Q9H6R4_256+265_LHPCPPPDFFRPCR (UniProt Q9H6R4) | 0.167
7 | NSF_P46459_599_SQLSCVVVDDIER (UniProt P46459) | -0.0463
8 | NOCT_Q9UK39_165_DNFVQCPVEALK (UniProt Q9UK39) | -0.16
9 | NONO_Q15233_145_FACHSASLTVR (UniProt Q15233) | -0.166
10 | NSUN2_Q08J23_221_CYLLVHQAK (UniProt Q08J23) | 0.00563
11 | NSMAF_Q92636_721_ICWHDNR (UniProt Q92636) | -0.00398
12 | NSDHL_Q15738_132_NVIETCK (UniProt Q15738) | 0.0113
13 | NPAT_Q14207_50_EYAEHCTDEGFIPACLLSLFGK (UniProt Q14207) | 0.0411
14 | NOP58_Q9Y2X3_439_TYDPSGDSTLPTCSK (UniProt Q9Y2X3) | -0.00873
15 | NLRX1_Q86UT6_713_CTVVAAVLGSGR (UniProt Q86UT6) | -0.0553
16 | NSD2_O96028_207_ESCPNTGR (UniProt O96028) | -0.0881
17 | NPEPPS_P55786_66_LPADVSPINYSLCLKPDLLDFTFEGK (UniProt P55786) | 0.147
18 | NOL9_Q5SY16_648_TVNCLLVGAIAIPHCVLK (UniProt Q5SY16) | 0.0896
19 | NSDHL_Q15738_40_RCTVIGGSGFLGQHMVEQLLAR (UniProt Q15738) | -0.109

Row | Target | probe-labelled cysteine peptide fold change
20 | NT5DC1_Q5TFE4_179_ENCGIYFPEIK (UniProt Q5TFE4) | -0.226
21 | NME7_Q9Y5B8_242_FTNCTCCIVKPHAVSEGLLGK (UniProt Q9Y5B8) | 0.234
22 | NOCT_Q9UK39_281_QFCIAVTHLK (UniProt Q9UK39) | 0.0137
23 | NOL10_Q9BSC4_202_VECWDPR (UniProt Q9BSC4) | -0.0808
24 | NLN_Q9BYT8_458_YNHAACFGLQPGCLLPDGSR (UniProt Q9BYT8) | -0.101
25 | NSF_P46459_334_LGANSGLHIIIFDEIDAICK (UniProt P46459) | -0.0805
26 | NOP14_P78316_457_CNHPSLAEGNK (UniProt P78316) | -0.017
27 | NPEPPSL1_A6NEC2_339_NSCSSSR (UniProt A6NEC2) | -0.165
28 | NSD2_O96028_899_WWPAEVCHPK (UniProt O96028) | -0.133
29 | NPM3_O75607_79_VEEEDDAEHVLALTMLCLTEGAKDECNVVEVVAR (UniProt O75607) | -0.00235
30 | NPM3_O75607_41_VPAPVTMDSFFFGCELSGHTR (UniProt O75607) | -0.0603
31 | NOP56_O00567_384_IDCFSEVPTSVFGEK (UniProt O00567) | -0.0363
32 | NSD1_Q96L73_2077_CGAPNCSGFLGVRPK (UniProt Q96L73) | -0.169
33 | NMT1_P30419_294_VHLEGIFQAVYTAGVVLPKPVGTCR (UniProt P30419) | -0.159
34 | NT5DC1_Q5TFE4_10+22_AQHFSLAACDVVGFDLDHTLCR (UniProt Q5TFE4) | 0.336
35 | NRDC_O43847_690_IVNTPQGCLWYK (UniProt O43847) | -0.0135
36 | NPLOC4_Q8TAT6_403_DECLLPCK (UniProt Q8TAT6) | -0.134
37 | NOL10_Q9BSC4_55_RIELIQDFEMPTVCTTIK (UniProt Q9BSC4) | -0.0229
38 | NLRX1_Q86UT6_779_DLLLHDQCQITTLR (UniProt Q86UT6) | 0.142

Same assay, conditions: 50 µM; THP-1; incubation time: 4 h

Row | Target | probe-labelled cysteine peptide fold change
39 | NPHP4_O75161_56_QGVLEVLSEVECHLR (UniProt O75161) | 0.245
40 | NSD1_Q96L73_1689_ILASNSIICPNHFTPR (UniProt Q96L73) | -0.243
41 | NOL10_Q9BSC4_147_DFSYHYPSCDLYFVGASSEVYR (UniProt Q9BSC4) | -0.0128
42 | NME7_Q9Y5B8_356_IQNAVHCTDLPEDGLLEVQYFFK (UniProt Q9Y5B8) | 0.0316
43 | NR2C1_P13056_185_QDSVQCER (UniProt P13056) | -0.317
44 | NOL6_Q9H6R4_256+265_LHPCPPPDFFRPCR (UniProt Q9H6R4) | -0.601
45 | NSF_P46459_599_SQLSCVVVDDIER (UniProt P46459) | 0.242
46 | NOCT_Q9UK39_165_DNFVQCPVEALK (UniProt Q9UK39) | -0.364
47 | NONO_Q15233_145_FACHSASLTVR (UniProt Q15233) | -0.853
48 | NSUN2_Q08J23_221_CYLLVHQAK (UniProt Q08J23) | -0.271
49 | NSMAF_Q92636_721_ICWHDNR (UniProt Q92636) | 0.00124
50 | NSDHL_Q15738_132_NVIETCK (UniProt Q15738) | 0.209
51 | NPAT_Q14207_50_EYAEHCTDEGFIPACLLSLFGK (UniProt Q14207) | -0.264
52 | NOP58_Q9Y2X3_439_TYDPSGDSTLPTCSK (UniProt Q9Y2X3) | -0.114
53 | NLRX1_Q86UT6_713_CTVVAAVLGSGR (UniProt Q86UT6) | 0.00705
54 | NSD2_O96028_207_ESCPNTGR (UniProt O96028) | -0.32
55 | NPEPPS_P55786_66_LPADVSPINYSLCLKPDLLDFTFEGK (UniProt P55786) | 0.356
56 | NOL9_Q5SY16_648_TVNCLLVGAIAIPHCVLK (UniProt Q5SY16) | -0.0864
57 | NSDHL_Q15738_40_RCTVIGGSGFLGQHMVEQLLAR (UniProt Q15738) | -0.144

Row | Target | probe-labelled cysteine peptide fold change
58 | NT5DC1_Q5TFE4_179_ENCGIYFPEIK (UniProt Q5TFE4) | -0.0577
59 | NME7_Q9Y5B8_242_FTNCTCCIVKPHAVSEGLLGK (UniProt Q9Y5B8) | 0.19
60 | NOCT_Q9UK39_281_QFCIAVTHLK (UniProt Q9UK39) | -0.0921
61 | NOL10_Q9BSC4_202_VECWDPR (UniProt Q9BSC4) | 0.14
62 | NLN_Q9BYT8_458_YNHAACFGLQPGCLLPDGSR (UniProt Q9BYT8) | -0.117
63 | NSF_P46459_334_LGANSGLHIIIFDEIDAICK (UniProt P46459) | 0.124
64 | NOP14_P78316_457_CNHPSLAEGNK (UniProt P78316) | 0.0346
65 | NPEPPSL1_A6NEC2_339_NSCSSSR (UniProt A6NEC2) | -0.696
66 | NSD2_O96028_899_WWPAEVCHPK (UniProt O96028) | -0.0255
67 | NPM3_O75607_79_VEEEDDAEHVLALTMLCLTEGAKDECNVVEVVAR (UniProt O75607) | 0.0419
68 | NPM3_O75607_41_VPAPVTMDSFFFGCELSGHTR (UniProt O75607) | 0.0957
69 | NOP56_O00567_384_IDCFSEVPTSVFGEK (UniProt O00567) | 0.161
70 | NSD1_Q96L73_2077_CGAPNCSGFLGVRPK (UniProt Q96L73) | -0.475
71 | NMT1_P30419_294_VHLEGIFQAVYTAGVVLPKPVGTCR (UniProt P30419) | 0.162
72 | NT5DC1_Q5TFE4_10+22_AQHFSLAACDVVGFDLDHTLCR (UniProt Q5TFE4) | 0.962
73 | NRDC_O43847_690_IVNTPQGCLWYK (UniProt O43847) | 0.0567
74 | NPLOC4_Q8TAT6_403_DECLLPCK (UniProt Q8TAT6) | 0.0942
75 | NOL10_Q9BSC4_55_RIELIQDFEMPTVCTTIK (UniProt Q9BSC4) | 0.127
76 | NLRX1_Q86UT6_779_DLLLHDQCQITTLR (UniProt Q86UT6) | 0.152
